Data as given in PubChem BioAssay AID1259254 (NCATS, 2017)
Here is one part, drawn at random, of about 59,000 reagents tested. Of all reagents, about 1,550 (2.6%) are marked active. 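G2 share is only a proxy for re-replication; each gene was hit by three separate siRNAs, and active genes were retested.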 Entries without a mark were called inactive. The numbers tell different reagents against one gene apart. Not all columns of the deposit are shown. The record does not give: the amount of reagent.

- Purpose: 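Finding genes that stop cells copying their DNA twice in one cycle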 (primary screen)
- Cells: human HCT116 colorectal cancer cells
- Reagents: single siRNA against human genes
- Duration: 3 days
- Measured: 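Nuclei stained with Hoechst and imaged; cell-cycle phase assigned by DNA content; G2 share scaled per plate, non-targeting siRNA 0%, GMNN siRNA 100%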
- Direction: G2 robust z-score: higher = more G2 cells, more excess DNA replication
- Active means: 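Active siRNAs have a G2 robust z of 5 or more median absolute deviations over the median, which in these data means about 38% or higher of GMNN control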

G2 robust z-score, by gene knocked down and reagent
CHCHD2P6: #1 -0.568; #2 -0.777; #3 0.0413
MRPL28: #1 3.88; #2 -0.895; #3 -0.518
INSL4: #1 -0.956; #2 -0.131; #3 2.29
LRRC57: #1 -0.724; #2 0.0512; #3 1.51
ATG9A: #1 1.41; #2 1.16; #3 -0.63
PCDH19: #1 -0.805; #2 2.43; #3 0.814
CTSS: #1 1.26; #2 0.177; #3 0.227
SETSIP: #1 0.0854; #2 -0.147; #3 -0.726

A few values from the entries so far.
Under “G2 robust z-score”, INSL4 #1 reads -0.956
INSL4 #2, G2 robust z-score = -0.131
Value for CHCHD2P6 #3 in “G2 robust z-score”: 0.0413
Result for PCDH19 #2 under “G2 robust z-score”: 2.43
Result of CTSS #2 in “G2 robust z-score”: 0.177
For “G2 robust z-score”, CHCHD2P6 #1 has -0.568

Further reagents:
G2 robust z-score, by gene knocked down and reagent
ARHGDIB: #1 0.133; #2 -0.00652; #3 -0.691
TGFB3: #1 1; #2 2.5; #3 0.147
ABCC8: #1 1.62; #2 0.537; #3 0.15
MAPK15: #1 -0.666; #2 -1.27; #3 -1.54
SCARB1: #1 4.98; #2 -0.343; #3 5.2 (active)
OR2T29: #1 1.9; #2 -0.71; #3 1.08
UTP15: #1 4.27; #2 4.83; #3 -0.464
PLXDC2: #1 -0.349; #2 1.99; #3 -1.21
GRK2: #1 -0.457; #2 2.78; #3 -0.567
ZNF175: #1 -1.14; #2 -0.224; #3 0.241
PIAS4: #1 -0.922; #2 -0.795; #3 -0.0449
MGMT: #1 -1.2; #2 -0.725; #3 -0.283
PIPOX: #1 1.11; #2 -0.199; #3 -0.537
ESR1: #1 -1.37; #2 0.401; #3 2.76
PTCD2: #1 -0.0627; #2 -0.33; #3 -0.666
